The record followed here is publication PMC2585060.

In assay [1] the target is T1, GST-tagged β3 integrin cytoplasmic tail Y747A (UniProt O54890).
T1 sequence: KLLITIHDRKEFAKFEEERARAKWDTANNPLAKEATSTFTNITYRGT
The assay can be described thus: pull-down; 5 µg recombinant GST-β integrin tails incubated overnight with 500 µg IEC lysate (50 mM Tris pH 7.4, 150 mM NaCl, 1 mM EDTA, 1% Triton-X-100), precipitated with glutathione beads, western blot for Kindlin-1 and GST; also done with keratinocyte lysates; only the target purified.

Assay [2] deals with T2, GST-tagged β3 integrin cytoplasmic tail Y759A (UniProt O54890).
T2 sequence: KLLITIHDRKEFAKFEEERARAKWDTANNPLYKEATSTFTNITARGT
The description is as above.

No constants are given. Whether binding was seen depends on the method and setting. Binding seen in cells or lysates may run through a third protein. Some entries that bind do so weakly or less than the wild type. Sequences can lack the tags named with a protein.

B1: Kindlin-1 (protein, UniProt P59113 1-677)
chain: MLSSGDLTSASWELVVRVDHANGEQQTEITLRVSGDLHIGGVMLKLVEQMNIAQDWSDYALWWEQKRCWLLKTHWTLDKCGVQADANLLFTPQHKMLRLRLPNAKTVRLRVSFSAVVFKAVADICKVLNIRRPEELSLLKPSSDYCKKKKKKEKNSKEPVIEDILNLESSSTSSGSPVSPGLYSKTMTPTYDPINGTPALSTMTWFGDSPLTEQNCSVLAFSQPPPSPDVLADMFQPRSLVDKAKMNAGWLDSSRSLMEQSIQEDEQLQLRFKYYTFFDLNPKYDAVRINQLYEQARWAVLLEEIDCTEEEMLIFAALQYHISKLSQCAEIQDFATKSEVDEVEAALSSLEVTLEGGKADNTLEDITDIPKLADYLKLFRPKKLMLKACKQYWFVFKDTSIAYFKNKELEQGEPIEKLNLRGCEIVPDVNVSGRKFGIKLLIPVADGMNEVYLRCDHEDQYARWMAACILASKGKTMADSSYQPEVISILSFLKMKNRNSSPLVASSLENMDMNPECLVSPCCAKKHKSKQLAARILEAHHNVAQMPLVEAKLQFIQAWQSLPEFGLTYYLVRFKGSKKDDILGVAYNRLIRIDAVTGIPVTTWRFANMKQWNVNWEIRQVAIEFDQNVSIAFTCLSADCKIVHEYIGGYIFLSTRSKDQNETLDEDLFHKLTGGQD
As for B1, the results for the binding result in assay [1] and in assay [2] were “binds” and “no binding”, respectively.
